# Reference: US9642847B2, “Combinational compositions and methods for treatment of cancer” (ArQule, Inc., priority 2009, dated 2017)
# Where two headings read alike, the source gives them in different places.
# Tested on: HT29 colon cancer cells
# Assay: 72 h MTT proliferation assay, equipotent fixed-ratio combination, isobologram analysis (Calcusyn)
# Type: cell-based
# Settings: Homo sapiens
# Text: Erlotinib is an inhibitor of the epidermal growth factor receptor and is indicated for the treatment of patients with locally advanced or metastatic non-small cell lung cancer after failure of at least one prior chemotherapy regimen, and is indicated for the first-line treatment of patients with locally advanced, unresectable or metastatic pancreatic cancer.
# Gefitinib is an inhibitor of the EGF receptor.
compound,measurement,setting,value
"Cc1ccc(NC(=O)c2ccc(CN3CCN(C)CC3)cc2)cc1Nc1nccc(-c2cccnc2)n1 [Imatinib, imatinib]",IC50,"HT-29, 72 h, HT29, 72 h, single agents and fixed-ratio combination, read-out: IC50",7.37 µM
same,IC50,"HT-29, HT29 cells, predicted value used to set the ratio, read-out: IC50, predicted",~10 µM
